Source: patent US8198322B2, “Apoptotic and anti-tumor activities of metallo-salens” (Board of Regents, The University of Texas System, priority 2008, dated 2012)
Some of these results come from one statement about several compounds together. At least one structure is not confirmed: it was looked up by name or label, or the drawing left a doubt. Some compounds share one range, which may span the group rather than tell each member.

Tested on: MCF-7 cells
Experiment: Nuclear fragmentation with DAPI staining
Type: cell-based, human
Conditions: MCF-7, 100 μM, 24 hrs

| SMILES | effect on nuclear morphology (DAPI staining) |
| --- | --- |
| COc1ccc(C=Nc2ccccc2N=Cc2ccc(OC)cc2[O-])c([O-])c1.[Cl-].[Fe+3] [compound 34, 4,4′-Dimethoxysalphen Fe(III) chloride] | significant effects on nuclear morphology and fragmentation |

Tested on: MCF-7 cells
Experiment: Cell viability assay (MTT, DIC microscopy) at 20 μM
Type: cell-based, human
Conditions: MCF-7, 20 μM, 48 hrs, in comparison to control
Procedure: (A-F): MCF-7 cells were treated with 20 μM metallo-salens and incubated for varying time periods (24-96 hrs). Viable cells were quantified using MTT assay. The percent viable cells (relative to control, treated with equivalent amount of DMSO) were plotted as a function of time for each compound. This experiment was repeated twice with 8 replicate treatments each time. Bars indicates standard errors of mean (SEM). Curves 1-42 in FIGS. 2A-2F, represent the viability curves for compounds 1-42 respectively. (A′-F′) DIC images of the corresponding MCF-7 cells that were treated with DMSO (control panel), or with 20 μM Mn(III)- and Fe(III)-salen complexes for 72 hrs showing the visual effects on cellular morphology and growth/death.
Cell viability assay: Approximately 10,000 MCF-7 cells were seeded into each well of a 96 well micro titer plate and incubated 24 hrs in presence of 150 μL DMEM. An additional 50 μL DMEM containing required amount of each metallo-salen to obtain 20 μM final concentrations (in 200 μL final volume) in 8 replicate wells were added. Control wells were treated with equivalent amount of dimethylsulfoxide (DMSO). The viability of the cells was assayed at 24, 48, 72 and 96 hrs post treatment by using both microscopic observation and MTT assay. For microscopic observation cells were stained with trypan blue for at least 10 minute and observed under Differential Interference Contrast (DIC) setting of a fluorescence microscope (Nikon Eclipse TE2000-U, Japan). The MTT assay was performed as described previously^42. In brief, 20 μL MTT (5 mg/ml in PBS) was added into each wells and incubated for 2 hrs under normal growth condition to allow the viable cell to convert MTT to formazan. Then the media was discarded and formazan crystals were dissolved by adding 100 μL of DMSO and incubating 2 hrs with continuous shaking. The absorbance of the lysates were directly measured at 560 nm using a micro plate reader (Fluostar-omega, BMG Labtech). The absorbance values (which are proportional to the viable cell) are plotted as a function of time. The studies were repeated twice with 8 replicates each time.
The inventors studied the effect of Mn(III)-salen and Fe(III)-salen derivatives on the cell viability of cultured breast cancer cells MCF-7 in order to investigate the biochemical effects of the derivatives. The cells were incubated alone or with 20 μM of each of the metallo-salen derivatives separately (compounds 1-45) for varying time periods (0-96 hrs). The viable cells were quantified using MTT assay and the percent of cell survived (relative to the control untreated cells) were plotted against time (FIGS. 2A-2F).

| SMILES | cell death within 48 hrs post treatment |
| --- | --- |
| CC(=O)[O-].COc1cccc(C=NCCN=Cc2cccc(OC)c2[O-])c1[O-].[Mn+3] [compound 5, 3,3′-Dimethoxysalen Mn(III) acetate] | 40-60% |
| CC(=O)[O-].[Mn+3].[O-]c1ccc(O)cc1C=NCCN=Cc1cc(O)ccc1[O-] [compound 4, 5,5′-Dihydroxysalen Mn(III) acetate] | 40-60% |
| CC(=O)[O-].COc1ccc(C=NCCN=Cc2ccc(OC)cc2[O-])c([O-])c1.[Mn+3] [compound 6, 4,4′-Dimethoxysalen Mn(III) acetate] | 40-60% |
| CC(=O)[O-].[Mn+3].[O-]c1c(O)cccc1C=NCCN=Cc1cccc(O)c1[O-] [compound 2, 3,3′-Dihydroxysalen Mn(III) acetate] | 40-60% |
| CC(=O)[O-].COc1ccc([O-])c(C=NCCN=Cc2cc(OC)ccc2[O-])c1.[Mn+3] [compound 7, 5,5′-Dimethoxysalen Mn(III) acetate] | 40-60% |
| CC(=O)[O-].[Mn+3].[O-]c1ccccc1C=NCCN=Cc1ccccc1[O-] [compound 1, Mn(III)-salen acetate] | 40-60% |

Same assay, conditions: MCF-7, 20 μM, up to 96 hrs

| SMILES | effect on cell viability (in words) |
| --- | --- |
| [Cl-].[Fe+3].[O-]c1ccc(O)cc1C=NCCN=Cc1cc(O)ccc1[O-] [compound 25, 5,5′-Dihydroxysalen Fe(III) chloride] | none of the corresponding hydroxy substituted Fe(III)-salen derivatives (compounds 23-25) killed MCF-7 cells |
| [Cl-].[Fe+3].[O-]c1cc(O)ccc1C=NCCN=Cc1ccc(O)cc1[O-] [compound 24, 4,4′-Dihydroxysalen Fe(III) chloride] | none of the corresponding hydroxy substituted Fe(III)-salen derivatives (compounds 23-25) killed MCF-7 cells |
| COc1ccc(C=Nc2ccccc2N=Cc2ccc(OC)cc2[O-])c([O-])c1.[Cl-].[Fe+3] [compound 34, 4,4′-Dimethoxysalphen Fe(III) chloride] | very efficient in inducing cell death |
